Publication PMC8673836
Positions count from the first letter of the chain named. No constants are given. Whether binding was seen depends on the method and setting. Binding seen in cells or lysates may run through a third protein. Some results given as binding are weak or reduced against the parent protein; the word gives no strength. For part of these data: Tags and fused reporters may be left off the sequences shown.

Chains of the proteins cited; added tags and fusions are not shown.
UniProt P27540: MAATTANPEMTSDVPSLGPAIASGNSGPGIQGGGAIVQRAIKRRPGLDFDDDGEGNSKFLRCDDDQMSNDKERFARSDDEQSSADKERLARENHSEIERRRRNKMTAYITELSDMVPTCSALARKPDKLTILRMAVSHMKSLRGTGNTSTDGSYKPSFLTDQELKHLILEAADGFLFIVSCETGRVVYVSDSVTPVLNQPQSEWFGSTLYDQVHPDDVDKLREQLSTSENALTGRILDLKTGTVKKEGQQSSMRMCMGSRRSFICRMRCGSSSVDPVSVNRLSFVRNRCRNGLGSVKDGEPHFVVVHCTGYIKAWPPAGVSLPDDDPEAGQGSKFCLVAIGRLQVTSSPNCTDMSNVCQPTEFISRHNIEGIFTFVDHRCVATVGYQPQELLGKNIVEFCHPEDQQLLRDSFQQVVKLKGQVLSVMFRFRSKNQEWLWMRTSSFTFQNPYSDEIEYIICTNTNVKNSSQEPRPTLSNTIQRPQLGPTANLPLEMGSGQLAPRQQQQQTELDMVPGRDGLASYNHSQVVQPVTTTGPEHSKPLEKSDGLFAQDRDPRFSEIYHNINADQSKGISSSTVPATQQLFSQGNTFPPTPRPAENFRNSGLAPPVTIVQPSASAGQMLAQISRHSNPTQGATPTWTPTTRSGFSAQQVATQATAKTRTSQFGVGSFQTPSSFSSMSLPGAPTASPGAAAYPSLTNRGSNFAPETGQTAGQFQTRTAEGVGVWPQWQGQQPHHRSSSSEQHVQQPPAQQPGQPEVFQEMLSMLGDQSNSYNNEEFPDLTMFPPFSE
UniProt Q99814: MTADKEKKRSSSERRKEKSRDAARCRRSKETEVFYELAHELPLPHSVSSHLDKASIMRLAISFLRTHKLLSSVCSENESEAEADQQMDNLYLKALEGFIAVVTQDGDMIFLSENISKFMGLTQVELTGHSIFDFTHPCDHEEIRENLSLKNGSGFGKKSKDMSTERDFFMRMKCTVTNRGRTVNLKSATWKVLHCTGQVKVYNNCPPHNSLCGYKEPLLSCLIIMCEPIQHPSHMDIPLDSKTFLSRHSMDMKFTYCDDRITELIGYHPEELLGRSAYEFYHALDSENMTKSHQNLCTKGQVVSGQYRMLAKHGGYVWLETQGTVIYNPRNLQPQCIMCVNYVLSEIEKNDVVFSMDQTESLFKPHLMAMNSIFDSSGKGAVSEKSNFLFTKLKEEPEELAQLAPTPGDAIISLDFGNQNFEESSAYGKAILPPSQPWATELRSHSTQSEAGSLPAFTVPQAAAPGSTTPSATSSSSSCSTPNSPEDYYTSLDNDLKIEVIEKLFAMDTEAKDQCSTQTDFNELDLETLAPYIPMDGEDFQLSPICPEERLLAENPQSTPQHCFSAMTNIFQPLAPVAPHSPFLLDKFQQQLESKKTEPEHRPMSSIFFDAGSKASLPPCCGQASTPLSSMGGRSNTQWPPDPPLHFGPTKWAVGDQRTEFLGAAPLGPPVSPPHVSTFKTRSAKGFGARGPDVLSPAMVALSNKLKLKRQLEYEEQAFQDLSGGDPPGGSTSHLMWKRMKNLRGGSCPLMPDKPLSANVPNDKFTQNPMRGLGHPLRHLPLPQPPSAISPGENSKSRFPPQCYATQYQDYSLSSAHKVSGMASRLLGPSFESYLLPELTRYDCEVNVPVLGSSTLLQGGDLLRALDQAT
UniProt Q16665: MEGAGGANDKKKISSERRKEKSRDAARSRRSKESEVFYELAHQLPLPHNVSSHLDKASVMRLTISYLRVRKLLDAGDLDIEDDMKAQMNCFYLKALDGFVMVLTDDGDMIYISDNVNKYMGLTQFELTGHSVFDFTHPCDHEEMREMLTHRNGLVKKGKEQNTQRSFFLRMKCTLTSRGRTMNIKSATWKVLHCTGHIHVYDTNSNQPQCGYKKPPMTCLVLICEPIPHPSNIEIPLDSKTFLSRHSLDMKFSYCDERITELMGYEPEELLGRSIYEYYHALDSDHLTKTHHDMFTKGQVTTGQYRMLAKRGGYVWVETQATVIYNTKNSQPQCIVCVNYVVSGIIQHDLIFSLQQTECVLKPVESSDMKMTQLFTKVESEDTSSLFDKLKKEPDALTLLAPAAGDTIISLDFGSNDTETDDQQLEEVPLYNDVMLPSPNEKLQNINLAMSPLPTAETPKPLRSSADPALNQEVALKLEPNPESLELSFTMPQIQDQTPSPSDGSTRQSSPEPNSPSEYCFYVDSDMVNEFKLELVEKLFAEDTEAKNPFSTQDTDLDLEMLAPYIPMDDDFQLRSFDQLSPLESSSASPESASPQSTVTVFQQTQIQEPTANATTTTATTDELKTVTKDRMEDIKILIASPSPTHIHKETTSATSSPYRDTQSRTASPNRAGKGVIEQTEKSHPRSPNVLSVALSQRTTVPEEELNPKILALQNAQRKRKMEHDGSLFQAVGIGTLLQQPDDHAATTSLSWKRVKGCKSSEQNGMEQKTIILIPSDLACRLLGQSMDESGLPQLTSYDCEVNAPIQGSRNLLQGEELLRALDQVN

What was measured:
[1] = molecular target: T1, ZHX2 (endogenous) (human (endogenous in MDA-MB-231 and MDA-MB-468)) (UniProt Q9Y6X8); experiment: co-IP; endogenous IP of MDA-MB-231 cells treated with DMOG for 8 hr
T1 sequence: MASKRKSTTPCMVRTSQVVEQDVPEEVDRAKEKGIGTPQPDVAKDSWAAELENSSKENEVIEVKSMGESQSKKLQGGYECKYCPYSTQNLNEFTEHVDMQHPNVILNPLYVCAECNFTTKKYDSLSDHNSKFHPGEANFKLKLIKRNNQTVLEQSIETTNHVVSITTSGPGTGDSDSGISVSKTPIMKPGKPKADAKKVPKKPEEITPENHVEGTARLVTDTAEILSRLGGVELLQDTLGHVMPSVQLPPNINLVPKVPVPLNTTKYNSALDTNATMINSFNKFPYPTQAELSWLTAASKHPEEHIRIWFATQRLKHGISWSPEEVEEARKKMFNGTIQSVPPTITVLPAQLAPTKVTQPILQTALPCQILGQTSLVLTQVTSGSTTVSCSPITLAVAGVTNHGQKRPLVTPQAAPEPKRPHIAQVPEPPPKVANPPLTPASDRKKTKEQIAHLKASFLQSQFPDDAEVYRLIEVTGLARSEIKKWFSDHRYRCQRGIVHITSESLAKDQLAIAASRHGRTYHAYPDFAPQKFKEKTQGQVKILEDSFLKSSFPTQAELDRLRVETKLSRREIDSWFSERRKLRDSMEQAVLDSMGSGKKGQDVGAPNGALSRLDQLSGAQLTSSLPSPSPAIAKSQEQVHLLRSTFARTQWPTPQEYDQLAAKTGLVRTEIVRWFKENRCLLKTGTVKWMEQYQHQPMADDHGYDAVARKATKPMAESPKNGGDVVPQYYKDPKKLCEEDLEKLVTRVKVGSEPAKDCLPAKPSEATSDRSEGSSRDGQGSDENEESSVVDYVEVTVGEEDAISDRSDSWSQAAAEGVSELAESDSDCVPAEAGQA

[2] = molecular target: T2, FLAG-HA-ZHX2 (WT), Zinc Fingers and Homeoboxes 2 (human) (UniProt Q9Y6X8); experiment: co-IP; IP with HA beads of MDA-MB-231 cells overexpressing either HA-ZHX2 or HA-HIF1α, immunoblots with indicated antibodies
T2 sequence: T1 sequence

[3] = molecular target: T2, FLAG-HA-ZHX2 (WT), Zinc Fingers and Homeoboxes 2 (human); experiment: co-IP; IP of cell lysates from MDA-MB-231 cells infected with lentivirus encoding control vector (EV) or ZHX2
[4] = molecular target: T3, FLAG-HA-ZHX2 (R581A) (human) (UniProt Q9Y6X8); experiment: co-IP; IP of MDA-MB-231 cells infected with lentivirus encoding either ZHX2 WT or mutation
T3 sequence: T1 sequence with R581A

[5] = molecular target: T2, FLAG-HA-ZHX2 (WT), Zinc Fingers and Homeoboxes 2 (human); experiment: as above
[6] = molecular target: T4, FLAG-HA-ZHX2 (R674A) (human) (UniProt Q9Y6X8); experiment: as above
T4 sequence: T1 sequence with R674A

[7] = molecular target: T2, FLAG-HA-ZHX2 (WT), Zinc Fingers and Homeoboxes 2 (human); experiment: co-IP; IP and immunoblots with indicated antibodies of MDA-MB-231 cells overexpressing HA-ZHX2 and HA-HIF1α

With “HIF1β (endogenous) (from UniProt P27540 1-789)” the binding [1] was “binds” and the binding [2] was “binds”.
“HIF2α (endogenous) (from UniProt Q99814 1-870)” was tested, and the binding [3] was “no binding”.
With “HIF1α (endogenous), hypoxia-inducible factor 1 alpha (from UniProt Q16665 1-826)” the binding [1] was “binds”, the binding [4] was “binds” and the binding [5] was “binds”. The binding [6] was “binds” and the binding [2] was “binds”.
In the case of HA-HIF1α (from UniProt Q16665 1-826), the binding [7] is reported as “binds”.
